Assay results published in PMC6706441, “B1 oligomerization regulates PML nuclear body biogenesis and leukemogenesis” (Nature Communications, 2019).
No constants are given. Whether binding was seen depends on the method and setting. Some binding calls cover weakened binding; strength is not graded here.

The chains behind the UniProt entries cited, without tags or fusion partners.
UniProt P55854: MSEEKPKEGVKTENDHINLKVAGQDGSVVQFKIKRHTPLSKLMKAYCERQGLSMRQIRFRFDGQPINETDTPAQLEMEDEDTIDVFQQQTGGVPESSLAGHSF
UniProt P61956: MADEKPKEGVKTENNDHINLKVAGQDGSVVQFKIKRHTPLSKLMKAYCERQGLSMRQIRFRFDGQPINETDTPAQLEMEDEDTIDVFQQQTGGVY
UniProt Q9UER7: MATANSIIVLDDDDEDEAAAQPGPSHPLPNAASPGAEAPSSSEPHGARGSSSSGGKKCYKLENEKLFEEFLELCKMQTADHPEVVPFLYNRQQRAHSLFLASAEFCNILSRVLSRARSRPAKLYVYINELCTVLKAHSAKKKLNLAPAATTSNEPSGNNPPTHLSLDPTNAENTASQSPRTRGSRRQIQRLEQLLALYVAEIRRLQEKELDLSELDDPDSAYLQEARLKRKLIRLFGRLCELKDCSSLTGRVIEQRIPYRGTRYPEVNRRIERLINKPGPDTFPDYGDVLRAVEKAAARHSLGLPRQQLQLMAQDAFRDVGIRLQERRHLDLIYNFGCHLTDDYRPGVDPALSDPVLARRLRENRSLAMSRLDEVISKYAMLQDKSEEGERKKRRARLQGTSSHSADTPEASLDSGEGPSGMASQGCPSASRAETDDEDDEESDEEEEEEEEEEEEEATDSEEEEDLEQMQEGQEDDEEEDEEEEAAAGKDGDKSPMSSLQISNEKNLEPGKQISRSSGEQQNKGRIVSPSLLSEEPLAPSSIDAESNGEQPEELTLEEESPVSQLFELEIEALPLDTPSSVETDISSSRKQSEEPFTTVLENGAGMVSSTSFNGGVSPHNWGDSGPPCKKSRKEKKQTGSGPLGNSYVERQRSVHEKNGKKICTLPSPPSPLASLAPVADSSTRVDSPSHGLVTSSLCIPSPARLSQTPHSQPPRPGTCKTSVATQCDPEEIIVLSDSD

How the values were obtained:
Assay in all cases: two-hybrid; CheckMate mammalian two-hybrid system in 293T cells; pG5/luc, pBIND bait and pACT prey at 1:1:1; luciferase 24 h after transfection, normalised to pACT vector with the pBIND bait (=1)
SUMO3 (pBIND fusion) = SUMO3 (pBIND fusion) (UniProt P55854)
[1] = target: full-length PML isoform IV, wild type (mammalian two-hybrid fusions) (human (by the UniProt code P29590-5)) (UniProt P29590)
SUMO2 (pBIND fusion) = SUMO2 (pBIND fusion) (UniProt P61956)
DAXX (pBIND fusion) = DAXX (pBIND fusion) (UniProt Q9UER7)

binding (SUMO3 (pBIND fusion)): binds | binding [1]: binds | binding (SUMO2 (pBIND fusion)): binds | binding (DAXX (pBIND fusion)): binds
Substance: full-length PML isoform IV, wild type (mammalian two-hybrid fusions) (from UniProt P29590-5 1-633)
